Data as given in PMC12032945, “Estrogenic activity of E2-conjugated GLP-1 is mediated by intracellular endolysosomal acidification and estrone metabolism” (Molecular Metabolism, 2025).
Results are given in words; binding and its absence hold for the method and conditions named. In cells and extracts the contact can be indirect. Some results given as binding are weak or reduced against the parent protein; the word gives no strength.

Amino acid sequences for entries named in this document (tags omitted). Residues count along the entry.
UniProt P43220, residues 24-463: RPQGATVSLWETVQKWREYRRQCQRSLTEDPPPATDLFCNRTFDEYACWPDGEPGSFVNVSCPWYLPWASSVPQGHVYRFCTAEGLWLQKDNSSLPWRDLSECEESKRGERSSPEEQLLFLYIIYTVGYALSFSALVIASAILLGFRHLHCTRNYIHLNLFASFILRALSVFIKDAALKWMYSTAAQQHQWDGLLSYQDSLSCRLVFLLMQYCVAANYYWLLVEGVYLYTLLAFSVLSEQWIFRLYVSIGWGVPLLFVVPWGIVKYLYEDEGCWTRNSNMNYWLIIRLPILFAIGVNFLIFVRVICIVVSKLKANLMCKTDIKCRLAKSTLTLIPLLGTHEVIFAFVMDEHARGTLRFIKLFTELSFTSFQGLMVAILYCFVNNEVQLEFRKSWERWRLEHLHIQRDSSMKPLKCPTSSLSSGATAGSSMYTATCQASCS
UniProt P49407: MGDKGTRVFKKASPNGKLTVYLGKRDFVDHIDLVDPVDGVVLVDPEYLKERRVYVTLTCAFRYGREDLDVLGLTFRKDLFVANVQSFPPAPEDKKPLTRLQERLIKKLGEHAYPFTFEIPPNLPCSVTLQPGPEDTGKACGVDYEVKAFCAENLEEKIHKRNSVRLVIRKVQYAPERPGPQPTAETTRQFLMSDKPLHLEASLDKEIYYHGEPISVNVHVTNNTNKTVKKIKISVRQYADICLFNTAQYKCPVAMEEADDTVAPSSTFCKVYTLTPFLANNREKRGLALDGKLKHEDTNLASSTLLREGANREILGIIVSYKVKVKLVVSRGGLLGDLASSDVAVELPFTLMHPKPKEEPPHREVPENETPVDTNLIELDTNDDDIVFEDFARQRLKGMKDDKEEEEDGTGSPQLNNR
UniProt P32121: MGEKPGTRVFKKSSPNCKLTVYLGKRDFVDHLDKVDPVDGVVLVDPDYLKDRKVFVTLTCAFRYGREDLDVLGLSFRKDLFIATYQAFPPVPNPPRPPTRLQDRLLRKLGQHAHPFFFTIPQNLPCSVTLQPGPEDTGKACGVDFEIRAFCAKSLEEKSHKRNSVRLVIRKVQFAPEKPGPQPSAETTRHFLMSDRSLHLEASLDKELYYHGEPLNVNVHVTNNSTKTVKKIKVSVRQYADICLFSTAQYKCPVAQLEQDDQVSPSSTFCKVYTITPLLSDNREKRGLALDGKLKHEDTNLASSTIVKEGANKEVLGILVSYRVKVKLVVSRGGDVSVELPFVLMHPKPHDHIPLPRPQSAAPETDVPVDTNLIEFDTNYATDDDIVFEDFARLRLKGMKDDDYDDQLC

Target: Human GLP-1R-GFP (human) (UniProt P43220)
Assay: FRET or BRET

binding	Substance
binds	β-arrestin-1-Rluc8 (from UniProt P49407 1-418)
binds	β-arrestin-2-Rluc8 (from UniProt P32121 1-409)
